## Screening data, single-dose tests

Chains of the proteins cited; added tags and fusions are not shown. Residues count along the entry.
UniProt P9WPC5, whole entry: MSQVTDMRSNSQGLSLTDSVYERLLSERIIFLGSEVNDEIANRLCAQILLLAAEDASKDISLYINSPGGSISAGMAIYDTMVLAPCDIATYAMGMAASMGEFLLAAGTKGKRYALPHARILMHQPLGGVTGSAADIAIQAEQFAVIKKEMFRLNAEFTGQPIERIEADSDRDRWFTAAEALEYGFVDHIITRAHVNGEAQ
UniProt P9WPC3, whole entry partner: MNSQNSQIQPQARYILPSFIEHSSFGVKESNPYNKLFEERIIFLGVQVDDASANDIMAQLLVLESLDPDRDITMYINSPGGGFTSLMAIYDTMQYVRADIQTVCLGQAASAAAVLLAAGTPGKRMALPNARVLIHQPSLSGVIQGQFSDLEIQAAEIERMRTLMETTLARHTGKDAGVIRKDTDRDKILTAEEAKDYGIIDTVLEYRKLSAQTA
UniProt Q8IDJ8, 1-583: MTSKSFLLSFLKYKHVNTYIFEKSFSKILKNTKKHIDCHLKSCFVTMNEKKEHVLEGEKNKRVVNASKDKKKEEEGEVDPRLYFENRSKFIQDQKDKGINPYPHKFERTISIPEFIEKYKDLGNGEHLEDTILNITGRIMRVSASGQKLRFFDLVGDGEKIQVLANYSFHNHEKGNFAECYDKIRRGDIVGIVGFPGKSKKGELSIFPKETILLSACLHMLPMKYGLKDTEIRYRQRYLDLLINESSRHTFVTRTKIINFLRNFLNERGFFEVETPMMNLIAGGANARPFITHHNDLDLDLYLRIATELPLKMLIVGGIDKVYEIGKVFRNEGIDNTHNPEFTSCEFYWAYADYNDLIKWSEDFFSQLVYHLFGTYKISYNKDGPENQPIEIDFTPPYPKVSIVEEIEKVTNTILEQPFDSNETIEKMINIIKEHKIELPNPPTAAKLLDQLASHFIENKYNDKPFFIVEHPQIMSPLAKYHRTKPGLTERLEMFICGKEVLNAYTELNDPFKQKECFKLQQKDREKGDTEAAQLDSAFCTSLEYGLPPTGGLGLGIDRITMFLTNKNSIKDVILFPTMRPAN

From ChEMBL document CHEMBL3988442, “University of Dundee, Small-Polar-MMV Screening Library” (2021).

Leishmania in macrophages: 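Cell assay of Leishmania donovani living inside macrophages; the read-out is not stated. Tested at 30 µM. The record gives no direction; compounds that gave an IC50 in retests scored well above the rest, so higher reads as stronger inhibition. Size under these conditions: about 69,000 compounds, about 1,000 of them at 50% or above in at least one test.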
ClpP1P2: 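Protease assay of ClpP1P2, read by the AMC dye that it sets free. Target: ClpP1P2, Mycobacterium tuberculosis (UniProt P9WPC5 and UniProt P9WPC3). Compounds at 50 µM. Direction is inferred from only a few compounds that gave an IC50; most scored high, so higher reads as stronger inhibition. Most other retested compounds had strongly negative values. Size under these conditions: about 69,000 compounds, about 10 of them at 50% or above in at least one test.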
Toxoplasma: 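Assay of Toxoplasma gondii numbers, read through their beta-galactosidase reporter with a colour substrate. Tested at 10 µM. Higher reads as fewer parasites (inferred from which compounds were picked for retests). Of about 67,000 compounds tested this way, about 260 (0.38%) reached 50% or more in at least one test.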
PfKRS1: 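Lysine-tRNA ligase, Plasmodium falciparum 3D7 (UniProt Q8IDJ8). Enzyme assay of the cytosolic lysyl-tRNA synthetase in 384-well plates, read by luminescence. Concentration: 30 µM. Direction is inferred from only a few compounds that gave an IC50; most scored high, so higher reads as stronger inhibition. Of about 69,000 compounds tested this way, about 49 (0.071%) reached 50% or more in at least one test.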

The filed quantity is “Percent Effect” (%). How 0% and 100% were set is not recorded. Most values in the screen are low, and negative values occur. This is an unselected part of the compounds tested. Two or more numbers in one place are separate tests of the same structure; such repeats can differ widely.

Result for Cc1nn(C)c2cnn(CC(=O)NCc3cccs3)c12 was Leishmania in macrophages: 22.32%; ClpP1P2: 0.4478%; Toxoplasma: 8.956%; PfKRS1: 3.643%.
Result for Cc1cnc(N2CC3(CCN(C(=O)c4cccnc4)C3)C2)nc1 was ClpP1P2: -10.82%; PfKRS1: -0.9274%.
Result for CCOc1ccccc1CNC(=O)NCC(c1cnn(C)c1)N(C)C (centres unmarked) was Leishmania in macrophages: 19.39%; ClpP1P2: -5.136%; Toxoplasma: 8.764%; PfKRS1: 4.332%.
Result for Cc1nc(CN2CCCC(N(C)Cc3nccn3C)C2)no1 (centres unmarked) was Leishmania in macrophages: 3.486%; ClpP1P2: -20.31%; Toxoplasma: -0.8986%; PfKRS1: -0.5567%.
Result for Cc1cc(NC(=O)NC(C)CN2CCN(c3ccccc3)CC2)on1 (centres unmarked) was Leishmania in macrophages: 18.65%; ClpP1P2: 0.7675%; Toxoplasma: -0.885%; PfKRS1: 8.471%.
Result for CCc1nc(C)c(C(=O)NCCn2nc3ccccn3c2=O)s1 was Leishmania in macrophages: 7.726%; ClpP1P2: -16.05%; Toxoplasma: 34.58%; PfKRS1: -1.654%.
Result for O=C(CCN1CCCCO1)N1CCC(CO)(CCc2ccccc2)CC1 was Leishmania in macrophages: -4.068%; ClpP1P2: -13.21%; Toxoplasma: -2.995%; PfKRS1: -0.04835%.
Result for COc1ccc(-c2ccc(C(=O)N3CCC[C@@H]3CO)o2)cc1 was Leishmania in macrophages: 33.69%; ClpP1P2: -4.949%; Toxoplasma: -0.6562%; PfKRS1: 5.744%.
Result for Cc1cccc(CC(=O)N2CCN(c3nccn3C)CC2)c1 was ClpP1P2: 10.36%; PfKRS1: 2.043%.
Result for CN(Cc1nc2ccccc2s1)C1CCCN(c2cccnn2)C1 (centres unmarked) was Leishmania in macrophages: -11.33%; ClpP1P2: 1.893%; Toxoplasma: 11.04%; PfKRS1: 7.547%.
Result for CS(=O)(=O)NC[C@]12COC[C@H]1CN(C(=O)c1ccccc1)C2 was ClpP1P2: -10.52%; PfKRS1: 0.2853%.
Result for O=C(Nc1ccccc1)c1ccc2c(c1)C1(CCCCC1)CN2 was ClpP1P2: 8.508%; PfKRS1: 3.197%.
Result for CCC1CNCc2cc3c(OC)ccc(OC)c3nc2O1 (centres unmarked) was Leishmania in macrophages: -20.16%; ClpP1P2: -43.09%; Toxoplasma: 2.971%; PfKRS1: 0.5336%.
Result for COCCC(=O)N1CCCC1c1nc(O)cc(C(C)C)n1 (centres unmarked) was Leishmania in macrophages: -4.566% and 24.88%; ClpP1P2: 18.92%; Toxoplasma: -37.33%; PfKRS1: -0.2074%.
Result for CCCc1cc(N2CCCC2Cn2nc(C)cc2C)n2ncnc2n1 (centres unmarked) was Leishmania in macrophages: 0.2281%; ClpP1P2: -1.421%; Toxoplasma: -4.909%; PfKRS1: -1.739%.
Result for CNC(=O)c1cc2c(nc1NCC(C)C)CCN(c1ccncn1)CC2.O=C(O)C(F)(F)F was Leishmania in macrophages: 12.26%; Toxoplasma: 5.465%.
Result for N#Cc1ccc(C(=O)N2CCC(Oc3ccc(C#N)cn3)CC2)cc1 was Leishmania in macrophages: 43.76%; ClpP1P2: -10.85%; Toxoplasma: -19.23%; PfKRS1: 2.37%.

Some entries from above, unchanged:

With O=C(CCN1CCCCO1)N1CCC(CO)(CCc2ccccc2)CC1 the screen gave Leishmania in macrophages: -4.068%; ClpP1P2: -13.21%; Toxoplasma: -2.995%; PfKRS1: -0.04835%.
With Cc1cc(NC(=O)NC(C)CN2CCN(c3ccccc3)CC2)on1 (centres unmarked) the screen gave Leishmania in macrophages: 18.65%; ClpP1P2: 0.7675%; Toxoplasma: -0.885%; PfKRS1: 8.471%.